Our source for the binding values is paper PMC8616561.

Amino acid sequences for entries named in this document (tags omitted).
UniProt Q923J1: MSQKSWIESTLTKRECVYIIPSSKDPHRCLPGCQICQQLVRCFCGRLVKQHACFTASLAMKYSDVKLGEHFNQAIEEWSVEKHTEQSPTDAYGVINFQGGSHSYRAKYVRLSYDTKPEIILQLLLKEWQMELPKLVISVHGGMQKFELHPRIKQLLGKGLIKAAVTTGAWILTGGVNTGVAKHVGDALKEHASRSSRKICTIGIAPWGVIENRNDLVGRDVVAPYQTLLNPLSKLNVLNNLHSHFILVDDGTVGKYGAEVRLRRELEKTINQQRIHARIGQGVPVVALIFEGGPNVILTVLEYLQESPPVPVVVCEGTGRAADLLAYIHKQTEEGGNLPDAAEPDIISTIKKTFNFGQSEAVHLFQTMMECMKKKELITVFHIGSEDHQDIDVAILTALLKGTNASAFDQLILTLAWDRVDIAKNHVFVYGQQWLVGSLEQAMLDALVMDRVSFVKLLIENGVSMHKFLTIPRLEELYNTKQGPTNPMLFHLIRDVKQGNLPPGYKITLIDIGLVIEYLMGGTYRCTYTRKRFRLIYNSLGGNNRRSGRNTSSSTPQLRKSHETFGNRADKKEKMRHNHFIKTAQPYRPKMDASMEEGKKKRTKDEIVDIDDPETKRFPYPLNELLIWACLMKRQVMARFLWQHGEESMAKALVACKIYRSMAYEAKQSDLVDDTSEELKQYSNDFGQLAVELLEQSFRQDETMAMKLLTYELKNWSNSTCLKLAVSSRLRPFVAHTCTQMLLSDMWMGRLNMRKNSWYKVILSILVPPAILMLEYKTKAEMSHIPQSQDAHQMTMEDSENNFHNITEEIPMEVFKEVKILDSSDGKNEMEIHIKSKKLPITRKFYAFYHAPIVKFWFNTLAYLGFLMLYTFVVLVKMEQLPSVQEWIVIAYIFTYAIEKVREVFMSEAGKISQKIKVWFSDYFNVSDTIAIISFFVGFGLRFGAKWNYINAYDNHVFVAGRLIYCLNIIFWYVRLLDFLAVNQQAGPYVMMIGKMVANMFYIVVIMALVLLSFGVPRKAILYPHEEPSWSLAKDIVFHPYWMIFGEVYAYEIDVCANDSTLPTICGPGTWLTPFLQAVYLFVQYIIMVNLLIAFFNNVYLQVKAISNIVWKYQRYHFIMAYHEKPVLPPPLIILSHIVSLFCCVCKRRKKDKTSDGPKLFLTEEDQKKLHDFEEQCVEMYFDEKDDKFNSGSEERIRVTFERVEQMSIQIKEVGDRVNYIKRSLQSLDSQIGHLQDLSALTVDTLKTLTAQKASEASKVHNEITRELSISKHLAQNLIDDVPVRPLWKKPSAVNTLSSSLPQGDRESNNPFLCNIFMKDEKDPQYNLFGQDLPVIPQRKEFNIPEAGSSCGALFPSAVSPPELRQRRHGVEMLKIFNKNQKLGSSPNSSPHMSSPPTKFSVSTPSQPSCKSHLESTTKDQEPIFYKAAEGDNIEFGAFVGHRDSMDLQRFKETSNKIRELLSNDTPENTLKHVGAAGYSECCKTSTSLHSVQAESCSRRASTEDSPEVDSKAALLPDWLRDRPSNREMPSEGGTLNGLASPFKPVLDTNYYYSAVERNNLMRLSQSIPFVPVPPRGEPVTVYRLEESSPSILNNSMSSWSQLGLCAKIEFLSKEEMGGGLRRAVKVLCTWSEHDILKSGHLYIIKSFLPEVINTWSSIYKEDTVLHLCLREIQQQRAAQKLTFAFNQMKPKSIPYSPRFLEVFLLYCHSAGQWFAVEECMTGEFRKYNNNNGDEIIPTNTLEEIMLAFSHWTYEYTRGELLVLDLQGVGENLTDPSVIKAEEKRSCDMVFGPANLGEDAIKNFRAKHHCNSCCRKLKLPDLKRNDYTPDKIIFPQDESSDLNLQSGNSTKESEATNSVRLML
UniProt Q0GA42: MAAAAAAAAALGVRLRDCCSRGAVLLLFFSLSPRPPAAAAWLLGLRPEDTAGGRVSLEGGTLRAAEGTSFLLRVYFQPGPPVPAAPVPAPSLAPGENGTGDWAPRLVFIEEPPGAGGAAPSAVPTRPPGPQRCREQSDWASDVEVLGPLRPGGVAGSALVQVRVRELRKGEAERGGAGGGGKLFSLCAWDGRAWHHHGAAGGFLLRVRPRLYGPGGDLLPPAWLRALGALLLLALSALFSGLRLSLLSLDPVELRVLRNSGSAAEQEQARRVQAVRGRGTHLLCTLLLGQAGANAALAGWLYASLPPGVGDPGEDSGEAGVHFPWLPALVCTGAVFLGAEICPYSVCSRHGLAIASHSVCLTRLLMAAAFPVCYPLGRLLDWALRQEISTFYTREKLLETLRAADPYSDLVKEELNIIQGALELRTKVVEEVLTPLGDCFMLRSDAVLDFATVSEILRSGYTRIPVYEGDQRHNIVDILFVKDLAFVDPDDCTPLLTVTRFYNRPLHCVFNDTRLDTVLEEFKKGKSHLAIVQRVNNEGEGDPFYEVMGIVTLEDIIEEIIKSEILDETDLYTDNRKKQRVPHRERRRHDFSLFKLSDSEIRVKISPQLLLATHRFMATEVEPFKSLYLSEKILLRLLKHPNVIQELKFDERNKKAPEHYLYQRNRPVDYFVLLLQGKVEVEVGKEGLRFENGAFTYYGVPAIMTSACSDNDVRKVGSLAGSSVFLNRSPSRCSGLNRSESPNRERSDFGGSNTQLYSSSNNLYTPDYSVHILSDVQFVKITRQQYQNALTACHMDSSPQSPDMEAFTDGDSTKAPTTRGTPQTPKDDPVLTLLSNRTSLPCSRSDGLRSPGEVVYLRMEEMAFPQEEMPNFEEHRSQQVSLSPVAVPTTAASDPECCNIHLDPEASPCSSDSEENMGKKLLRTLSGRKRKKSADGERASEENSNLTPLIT

These are yes or no findings as the source states them, for the method shown. Binding seen in cells or lysates may run through a third protein. Some entries that bind do so weakly or less than the wild type. Sequences can lack the tags named with a protein.

The target in test [1] is C-terminally HA-tagged mouse TRPM7 (mouse) (UniProt Q923J1). Put plainly: co-IP; anti-HA AP from CL-47 solubilised membrane fractions of TRPM7-/- HEK293 cells co-expressing TRPM7-HA with ARL15-Flag alone or CNNM-Flag alone; Western blot with anti-Flag and anti-HA. (A western blot detects proteins with antibodies after separation by electrophoresis.)
Test [2] has the same target. The experiment in a line: co-IP; anti-HA AP from CL-47 solubilised membrane fractions of TRPM7-/- HEK293 cells co-expressing TRPM7-HA, ARL15-Flag and CNNM-Flag (all three present); Western blot with anti-Flag and anti-HA.

Turning to “Myc-Flag-tagged mouse CNNM1 (from UniProt Q0GA42 1-951)”, the binding result in test [1] and in test [2] was “binds” in each case.

B1: Myc-Flag-tagged mouse ARL15 (protein, UniProt Q8BGR6 1-204)
chain: MSDLRITEAFLYMDYLCFRALCCKGPPPARPEYDLVCIGLTGSGKTSLLSELCSESPENVVSTTGFSIKAVPFQNAVLNVKELGGADNIRKYWSRYYQGSQGVIFVLDSASSEDDLETARNELHSALQHPQLCTLPFLILANHQDKPAARSVQEIKKYFELEPLARGKRWILQPCSLDDVDTLKDSFSQLINLLEEKDHEAVRM
In the case of B1, the binding entry in test [1] and in test [2] was “binds” each time.

B2: Myc-Flag-tagged mouse CNNM2 (protein, UniProt Q3TWN3 1-875)
chain: MIGCGACEPEVKMAGGQAAAALPTWKMAARRSLSARGRGVLQAAAGRLLPLLLLSCCWGAGGCTAAGENEETVIIGLRLEDTNDVSFMEGGALRVSERTRVKLRVYGQNINNETWSRIAFTEHERRRHTPSERGLGGPAPPEPDSGPQRCGIRTSDIIILPHIILNRRTSGIIEIEIKPLRKMEKSKSYYLCTSLSTPALGAGGSGSASGTVGGKGGAGVAGLPPPPWAETTWIYHDGEDTKMIVGEEKKFLLPFWLQVIFISLLLCLSGMFSGLNLGLMALDPMELRIVQNCGTEKEKNYAKRIEPVRRQGNYLLCSLLLGNVLVNTTLTILLDDIAGSGLVAVVVSTIGIVIFGEIVPQAICSRHGLAVGANTIFLTKFFMMMTFPASYPVSKLLDCVLGQEIGTVYNREKLLEMLRVTDPYNDLVKEELNIIQGALELRTKTVEDVMTPLRDCFMITGEAILDFNTMSEIMESGYTRIPVFEGERSNIVDLLFVKDLAFVDPDDCTPLKTITKFYNHPLHFVFNDTKLDAMLEEFKKGKSHLAIVQRVNNEGEGDPFYEVLGIVTLEDVIEEIIKSEILDETDLYTDNRTKKKVAHRERKQDFSAFKQTDSEMKVKISPQLLLAMHRFLATEVEAFSPSQMSEKILLRLLKHPNVIQELKYDEKNKKAPECYLYQRNKPVDYFVLILQGKVEVEAGKEGMKFEASAFSYYGVMALTASPVPLSLSRTFVVSRTEVLAAGSPGENKSPPRPCGLNHSDSLSRSDRIDAMTPTLGSSNNQLSSSFLQVYIPDYSVRALSDLQFVKISRQQYQNALMASRMDKTPQSSDSENTKIELTLTELHDGLPDETANLLNEQNCVSHNKANHSLHSEGAI
For the molecule B2, the binding entry in test [1] and in test [2] was “binds” throughout.

B3: Myc-Flag-tagged mouse CNNM3 (protein, UniProt Q32NY4 1-713)
chain: MAAAAAAVVGWLGWVLAAFCLGSTAGEAAPAPGAGLLNFCTEEDSAPGAGSLRGRAAPEATLCLRLFCSGLANSSWTWVAAEGAGCPEGGRATEPEEAAAPTGEWRALLRLRAEAGHPRSALLAVRVEPGGGAAEEAAPPWALGLGAAGLLALAAVARGLQLSALALAPAEVQVLRESGSEAERAAARRLEPARRWAGCALGALLLLASLAQAALAVLLYGAAGQRAVPAVLGCAGLVFLVGEVLPAAVSGRWALALAPRALGLSRLAVLLTLPVALPVGQLLELAARPGRLRERVLELARGGGDPYSDLSKGVLRSRTVEDVLTPLEDCFMLDSGTVLDFSVLASIMQSGHTRIPVYEEERSNIVDMLYLKDLAIVEPEDCTPLSTITRFYNHPLHFVFNDTKLDAVLEEFKRGKSHLAIVQKVNNEGEGDPFYEVLGLVTLEDVIEEIIKSEILDESEDYSDTKVRKKTVALGAPLKRKEEFSLFKVSDDEYKVKISPQLLLATQRFLSREVDVFSPLRVSEKVLLHLLKHPSVNQEVTFDESNRLAAHHYLYQRSQPVDYFILILQGRVEVEIGKEGLKFENGAFTYYGVSALTAPSSAHQSPVSSRQLIRHDVQPEPADGTRSCTYCPDYTVRALSDLQLIKVTRLQYLNALLATRAQSLPPSPENAELQAIPGSQTRLLGDKSRETAGSTNSRPSIPVEESPGRNPGV
Turning to B3, the binding entry in test [1] and in test [2] was “binds” each time.

B4: Myc-Flag-tagged mouse CNNM4 (protein, UniProt Q69ZF7 1-771)
chain: MAPGGGGGRRDGWPARGRLLLAALLLLWTRAASGQSSPQQSVILGMRLASCNKSCGMNPDGIIFVSEGSTVNLRLYGHSLGDISSNLISFTEVDDAEAVHNSTNCLELTKDLVVQRLVNVSRGNTSGMLVVITKFLRRSENMKLYALCTRPRADGPWTRWTDKDSLLFMVEEHGRFLPLWLHILLVMVLLVLSGIFSGLNLGLMALDPMELRIVQNCGTEKERKYARKIEPIRRKGNYLLCSLLLGNVLVNTSLTILLDNLIGSGIMAVASSTIGIVIFGEILPQALCSRHGLAVGANTIVLTKVFMLLTFPLSFPISKLLDFVLGQEIRTVYNREKLMEMLKVTEPYNDLVKEELNMIQGALELRTKTVEDIMTQLHDCFMIRSDAILDFNTMSEIMESGYTRIPVFEDEQSNIVDILYVKDLAFVDPDDCTPLKTITRFYNHPVHFVFHDTKLDAMLEEFKKGKSHLAIVQKVNNEGEGDPFYEVLGLVTLEDVIEEIIKSEILDESDMYTDNRTRKRVSVKNKRDFSAFKDTDNELKVKISPQLLLAAHRFLATEVPQFSPSLMSEKILLRLLKYPDVIQELRFNEHNRYCVRHYLYTRNKPADCFVLILQGKVEVEAGKENMKFETGAFSYYGTMALSVAPPDRSPALPTPLSRSASLSYPDRNTDLTSTSLAGSNQFGSCILGQYVSDFSVRALTDLQYIKITRQQYQNGLMASRMDNSPQPTFDGCATCSENFMERPELPPVDETTTLLNERNSLLHRASEEETI
Regarding B4, the binding result in test [1] and in test [2] was “binds” throughout.
